For one substance, binding results are on record in PMC11900823.

Sequences of proteins named here, by UniProt entry; tags and fusion partners are left off.
UniProt P27986: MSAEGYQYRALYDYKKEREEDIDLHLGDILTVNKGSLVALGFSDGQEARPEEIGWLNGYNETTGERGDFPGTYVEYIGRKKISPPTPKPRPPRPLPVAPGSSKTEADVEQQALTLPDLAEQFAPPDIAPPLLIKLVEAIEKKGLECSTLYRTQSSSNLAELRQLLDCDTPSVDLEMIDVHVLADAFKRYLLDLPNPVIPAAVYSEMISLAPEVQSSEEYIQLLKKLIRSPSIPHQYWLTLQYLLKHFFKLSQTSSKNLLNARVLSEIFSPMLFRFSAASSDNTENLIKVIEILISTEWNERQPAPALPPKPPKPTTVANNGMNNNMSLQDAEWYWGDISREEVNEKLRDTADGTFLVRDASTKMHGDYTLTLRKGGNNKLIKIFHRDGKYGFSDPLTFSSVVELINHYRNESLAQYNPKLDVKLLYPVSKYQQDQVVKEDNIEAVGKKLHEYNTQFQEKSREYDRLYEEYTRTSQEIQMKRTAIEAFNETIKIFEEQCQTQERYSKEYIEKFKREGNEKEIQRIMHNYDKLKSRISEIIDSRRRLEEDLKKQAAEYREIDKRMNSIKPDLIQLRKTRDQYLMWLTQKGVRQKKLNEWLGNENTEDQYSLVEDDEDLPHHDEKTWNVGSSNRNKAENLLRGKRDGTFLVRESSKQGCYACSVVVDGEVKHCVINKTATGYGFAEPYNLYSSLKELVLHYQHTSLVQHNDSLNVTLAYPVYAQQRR

In assay [1] the target is T1, BRD7 485-651, Flag-GFP-labeled truncation (UniProt Q9NPI1).
T1 sequence: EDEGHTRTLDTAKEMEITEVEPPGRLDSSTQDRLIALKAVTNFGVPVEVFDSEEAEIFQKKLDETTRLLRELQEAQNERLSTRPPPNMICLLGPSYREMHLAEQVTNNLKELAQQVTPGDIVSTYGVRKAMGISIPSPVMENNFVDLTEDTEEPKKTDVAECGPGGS
In words: co-IP; anti-Flag (DYKDDDDK) IP from total lysate of transfected 5-8F and CNE2 cells, protein A+G agarose, Western blot.

Assay [2] concerns the target T1, BRD7 485-651, Flag-GFP-labeled truncation. In words: co-IP; anti-Flag IP from lysate of 293T cells transfected with BRD7 or its truncations, Western blot. (In general: A western blot detects proteins with antibodies after separation by electrophoresis.)

These are yes or no findings as the source states them, for the method shown. In cells and extracts the contact can be indirect. Some binding calls cover weakened binding; strength is not graded here. Where a sequence is shown, tags or fusion partners need not be part of it.

Consider PI3K-p85α (from UniProt P27986 1-724), for which the binding entry in assay [1] and in assay [2] was “binds” throughout.
